These are yes or no findings as the source states them, for the method shown. Some binding calls cover weakened binding; strength is not graded here.

The text below walks through data of patent US20190111164A1.

The experiment deals with Muc1-1-5G peptide. Nature of the experiment: ELISA, peptide coated on the plate. A general note: In an ELISA, binding on a coated surface is turned into a signal by an enzyme label.

B1: 2F3 parent antibody (antibody, V domains shown)
VH: QITLRESGGGLVQPGGSLRLSCAASGFTFDSYAMSWVRQAPGKGLEWVSAISGSGDSTYYADSVKGRFSISRDNSKNTLYLQMNSLRAEDTAVYYCAIRREYSGYAPFDYWGQGTLVTVSS
VL: DIVMTQTPSSLSASVGDRVTITCRASQGISSWLAWYQQKPEKAPRSLIYAASSLQSGVPSRFSGSGSGTDFTLTISSLQPEDFATYYCQQYISYPYTFGQGTKLEIK
Turning to B1, the binding entry is reported as “binds”.
